# Measurements reported in the supplement of paper PMC6411743.
# Amino acid sequences for entries named in this document (tags omitted). A change or cut given only in a name is not applied to a line headed by its entry.
# UniProt O95104: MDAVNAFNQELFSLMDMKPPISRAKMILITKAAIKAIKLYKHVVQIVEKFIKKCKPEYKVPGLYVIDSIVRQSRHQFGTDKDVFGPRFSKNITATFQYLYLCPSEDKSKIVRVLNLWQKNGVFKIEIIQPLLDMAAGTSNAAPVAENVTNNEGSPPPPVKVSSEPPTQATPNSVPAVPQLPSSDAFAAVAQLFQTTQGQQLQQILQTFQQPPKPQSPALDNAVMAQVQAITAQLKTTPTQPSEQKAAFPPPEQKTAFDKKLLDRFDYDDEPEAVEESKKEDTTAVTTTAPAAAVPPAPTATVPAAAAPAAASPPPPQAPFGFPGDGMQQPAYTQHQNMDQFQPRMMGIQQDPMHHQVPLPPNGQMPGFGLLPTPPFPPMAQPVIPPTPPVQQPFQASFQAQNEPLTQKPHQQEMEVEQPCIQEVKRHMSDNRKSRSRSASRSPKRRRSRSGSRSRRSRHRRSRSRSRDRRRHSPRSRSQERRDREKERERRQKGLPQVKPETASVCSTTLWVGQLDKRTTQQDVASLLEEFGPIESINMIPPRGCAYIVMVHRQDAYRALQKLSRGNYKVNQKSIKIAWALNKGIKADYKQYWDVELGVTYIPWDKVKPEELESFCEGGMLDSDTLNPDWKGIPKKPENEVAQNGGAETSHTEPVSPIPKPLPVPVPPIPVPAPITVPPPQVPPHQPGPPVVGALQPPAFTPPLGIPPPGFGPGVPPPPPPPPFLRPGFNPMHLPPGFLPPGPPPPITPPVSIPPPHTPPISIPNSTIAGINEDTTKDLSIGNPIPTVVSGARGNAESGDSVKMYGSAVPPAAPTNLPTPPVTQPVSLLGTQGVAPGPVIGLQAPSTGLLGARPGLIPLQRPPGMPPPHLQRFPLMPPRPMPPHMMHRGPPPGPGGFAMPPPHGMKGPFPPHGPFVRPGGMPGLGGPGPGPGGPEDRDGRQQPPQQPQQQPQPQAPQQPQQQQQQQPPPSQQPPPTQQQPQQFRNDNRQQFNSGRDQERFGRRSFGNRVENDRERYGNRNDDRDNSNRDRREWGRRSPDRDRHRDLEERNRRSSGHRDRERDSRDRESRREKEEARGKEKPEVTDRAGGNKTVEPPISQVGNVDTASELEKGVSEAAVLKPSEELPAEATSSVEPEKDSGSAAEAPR
# UniProt O95573: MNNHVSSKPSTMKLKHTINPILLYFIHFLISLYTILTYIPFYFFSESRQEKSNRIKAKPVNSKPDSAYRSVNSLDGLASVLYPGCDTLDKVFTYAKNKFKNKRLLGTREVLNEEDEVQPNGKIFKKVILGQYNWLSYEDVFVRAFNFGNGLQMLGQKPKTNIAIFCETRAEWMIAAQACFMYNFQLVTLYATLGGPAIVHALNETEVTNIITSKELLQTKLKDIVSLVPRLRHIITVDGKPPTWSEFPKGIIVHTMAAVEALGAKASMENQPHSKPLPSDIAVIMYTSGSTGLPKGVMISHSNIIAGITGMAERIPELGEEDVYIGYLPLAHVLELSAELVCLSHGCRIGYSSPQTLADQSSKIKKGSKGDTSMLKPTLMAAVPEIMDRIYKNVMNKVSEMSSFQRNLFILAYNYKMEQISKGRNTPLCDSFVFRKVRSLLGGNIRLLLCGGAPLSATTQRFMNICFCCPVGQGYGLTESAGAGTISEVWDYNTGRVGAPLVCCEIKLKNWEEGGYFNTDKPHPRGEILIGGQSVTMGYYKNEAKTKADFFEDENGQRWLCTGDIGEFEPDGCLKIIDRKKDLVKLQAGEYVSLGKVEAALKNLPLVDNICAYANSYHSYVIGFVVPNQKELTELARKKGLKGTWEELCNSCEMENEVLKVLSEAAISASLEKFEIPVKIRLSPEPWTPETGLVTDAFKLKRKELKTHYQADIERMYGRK
# UniProt O75792: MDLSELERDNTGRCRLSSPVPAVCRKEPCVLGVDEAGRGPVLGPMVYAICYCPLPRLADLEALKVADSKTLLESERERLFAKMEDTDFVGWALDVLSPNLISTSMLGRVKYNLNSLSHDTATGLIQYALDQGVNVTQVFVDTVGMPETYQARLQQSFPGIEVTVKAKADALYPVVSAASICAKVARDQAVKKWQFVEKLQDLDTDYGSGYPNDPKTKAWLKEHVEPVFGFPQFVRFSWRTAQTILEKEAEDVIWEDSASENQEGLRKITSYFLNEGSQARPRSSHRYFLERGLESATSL
# UniProt O95644: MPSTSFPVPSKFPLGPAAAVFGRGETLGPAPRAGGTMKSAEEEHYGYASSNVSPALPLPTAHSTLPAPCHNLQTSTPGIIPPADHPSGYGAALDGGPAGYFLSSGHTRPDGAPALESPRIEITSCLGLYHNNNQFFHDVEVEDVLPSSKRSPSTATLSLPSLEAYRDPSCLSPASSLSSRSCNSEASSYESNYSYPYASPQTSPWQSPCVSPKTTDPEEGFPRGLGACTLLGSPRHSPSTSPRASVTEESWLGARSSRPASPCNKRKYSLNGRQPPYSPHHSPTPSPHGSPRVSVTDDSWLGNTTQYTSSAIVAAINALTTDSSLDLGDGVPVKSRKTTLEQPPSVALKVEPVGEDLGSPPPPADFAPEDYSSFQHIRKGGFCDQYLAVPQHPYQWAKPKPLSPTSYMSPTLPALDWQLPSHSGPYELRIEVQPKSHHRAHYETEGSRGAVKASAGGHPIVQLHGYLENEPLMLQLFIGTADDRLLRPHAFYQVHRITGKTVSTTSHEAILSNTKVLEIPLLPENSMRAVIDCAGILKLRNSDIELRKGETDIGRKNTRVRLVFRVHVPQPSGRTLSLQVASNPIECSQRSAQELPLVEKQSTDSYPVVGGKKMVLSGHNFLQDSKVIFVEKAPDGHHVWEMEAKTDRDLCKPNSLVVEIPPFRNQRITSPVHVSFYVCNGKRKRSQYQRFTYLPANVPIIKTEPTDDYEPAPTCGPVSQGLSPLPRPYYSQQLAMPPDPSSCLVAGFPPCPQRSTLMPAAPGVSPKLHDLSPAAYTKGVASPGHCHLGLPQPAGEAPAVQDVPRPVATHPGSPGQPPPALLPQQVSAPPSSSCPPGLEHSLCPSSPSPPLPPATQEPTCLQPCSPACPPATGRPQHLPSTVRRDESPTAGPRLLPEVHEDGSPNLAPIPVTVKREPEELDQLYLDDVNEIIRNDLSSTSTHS
# UniProt O95059: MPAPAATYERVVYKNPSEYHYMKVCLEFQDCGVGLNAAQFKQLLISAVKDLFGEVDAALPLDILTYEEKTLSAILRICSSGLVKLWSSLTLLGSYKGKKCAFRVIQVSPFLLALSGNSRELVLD
# UniProt O60563, whole entry: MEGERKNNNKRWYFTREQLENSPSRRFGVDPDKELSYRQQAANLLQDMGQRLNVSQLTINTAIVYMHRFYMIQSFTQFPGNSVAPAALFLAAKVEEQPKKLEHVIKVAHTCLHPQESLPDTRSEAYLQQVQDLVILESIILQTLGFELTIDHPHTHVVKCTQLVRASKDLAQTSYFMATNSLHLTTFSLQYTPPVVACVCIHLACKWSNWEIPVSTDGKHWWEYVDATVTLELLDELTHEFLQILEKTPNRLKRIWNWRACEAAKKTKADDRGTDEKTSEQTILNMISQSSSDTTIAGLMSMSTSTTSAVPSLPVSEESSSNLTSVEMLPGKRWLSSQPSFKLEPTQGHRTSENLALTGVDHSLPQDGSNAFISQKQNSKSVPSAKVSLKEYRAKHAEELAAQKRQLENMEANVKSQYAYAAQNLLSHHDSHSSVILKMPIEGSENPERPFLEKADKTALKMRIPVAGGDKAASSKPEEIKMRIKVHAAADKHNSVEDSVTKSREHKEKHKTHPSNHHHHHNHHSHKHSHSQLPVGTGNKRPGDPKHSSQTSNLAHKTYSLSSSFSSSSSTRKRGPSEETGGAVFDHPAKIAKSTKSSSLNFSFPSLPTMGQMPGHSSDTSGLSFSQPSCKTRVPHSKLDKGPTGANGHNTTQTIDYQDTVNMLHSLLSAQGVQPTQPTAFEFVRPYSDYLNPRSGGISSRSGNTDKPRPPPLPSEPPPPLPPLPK
# UniProt O94903: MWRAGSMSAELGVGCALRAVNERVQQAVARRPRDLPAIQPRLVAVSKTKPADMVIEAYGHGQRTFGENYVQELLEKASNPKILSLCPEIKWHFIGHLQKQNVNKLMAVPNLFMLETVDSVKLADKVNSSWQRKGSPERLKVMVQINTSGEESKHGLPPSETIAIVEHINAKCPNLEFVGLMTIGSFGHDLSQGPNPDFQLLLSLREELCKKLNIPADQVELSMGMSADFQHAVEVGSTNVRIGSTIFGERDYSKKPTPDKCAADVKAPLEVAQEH
# UniProt O43924: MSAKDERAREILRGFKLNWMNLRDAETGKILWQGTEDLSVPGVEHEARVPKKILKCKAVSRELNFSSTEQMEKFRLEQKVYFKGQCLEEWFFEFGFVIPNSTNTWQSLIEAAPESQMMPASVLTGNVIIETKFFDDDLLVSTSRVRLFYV
# UniProt O43920, whole entry: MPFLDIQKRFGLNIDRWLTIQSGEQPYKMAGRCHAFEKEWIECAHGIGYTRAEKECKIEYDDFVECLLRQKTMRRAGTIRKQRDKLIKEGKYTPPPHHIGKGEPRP
# UniProt O75569: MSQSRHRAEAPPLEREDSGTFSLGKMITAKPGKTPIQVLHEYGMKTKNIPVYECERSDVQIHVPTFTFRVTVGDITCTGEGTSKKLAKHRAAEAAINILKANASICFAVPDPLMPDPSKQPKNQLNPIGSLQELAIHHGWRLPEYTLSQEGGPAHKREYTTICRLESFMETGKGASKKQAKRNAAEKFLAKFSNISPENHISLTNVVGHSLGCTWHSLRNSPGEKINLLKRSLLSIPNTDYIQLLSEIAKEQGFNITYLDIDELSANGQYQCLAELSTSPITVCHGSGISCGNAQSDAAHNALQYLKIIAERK
# UniProt O75940: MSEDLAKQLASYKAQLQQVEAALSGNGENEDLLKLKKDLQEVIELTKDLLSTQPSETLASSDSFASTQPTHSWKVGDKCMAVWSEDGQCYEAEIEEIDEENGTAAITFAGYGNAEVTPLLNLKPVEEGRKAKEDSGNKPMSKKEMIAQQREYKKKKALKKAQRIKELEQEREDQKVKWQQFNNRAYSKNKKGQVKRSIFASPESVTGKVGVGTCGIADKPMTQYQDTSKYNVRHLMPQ
# UniProt O94913, whole entry: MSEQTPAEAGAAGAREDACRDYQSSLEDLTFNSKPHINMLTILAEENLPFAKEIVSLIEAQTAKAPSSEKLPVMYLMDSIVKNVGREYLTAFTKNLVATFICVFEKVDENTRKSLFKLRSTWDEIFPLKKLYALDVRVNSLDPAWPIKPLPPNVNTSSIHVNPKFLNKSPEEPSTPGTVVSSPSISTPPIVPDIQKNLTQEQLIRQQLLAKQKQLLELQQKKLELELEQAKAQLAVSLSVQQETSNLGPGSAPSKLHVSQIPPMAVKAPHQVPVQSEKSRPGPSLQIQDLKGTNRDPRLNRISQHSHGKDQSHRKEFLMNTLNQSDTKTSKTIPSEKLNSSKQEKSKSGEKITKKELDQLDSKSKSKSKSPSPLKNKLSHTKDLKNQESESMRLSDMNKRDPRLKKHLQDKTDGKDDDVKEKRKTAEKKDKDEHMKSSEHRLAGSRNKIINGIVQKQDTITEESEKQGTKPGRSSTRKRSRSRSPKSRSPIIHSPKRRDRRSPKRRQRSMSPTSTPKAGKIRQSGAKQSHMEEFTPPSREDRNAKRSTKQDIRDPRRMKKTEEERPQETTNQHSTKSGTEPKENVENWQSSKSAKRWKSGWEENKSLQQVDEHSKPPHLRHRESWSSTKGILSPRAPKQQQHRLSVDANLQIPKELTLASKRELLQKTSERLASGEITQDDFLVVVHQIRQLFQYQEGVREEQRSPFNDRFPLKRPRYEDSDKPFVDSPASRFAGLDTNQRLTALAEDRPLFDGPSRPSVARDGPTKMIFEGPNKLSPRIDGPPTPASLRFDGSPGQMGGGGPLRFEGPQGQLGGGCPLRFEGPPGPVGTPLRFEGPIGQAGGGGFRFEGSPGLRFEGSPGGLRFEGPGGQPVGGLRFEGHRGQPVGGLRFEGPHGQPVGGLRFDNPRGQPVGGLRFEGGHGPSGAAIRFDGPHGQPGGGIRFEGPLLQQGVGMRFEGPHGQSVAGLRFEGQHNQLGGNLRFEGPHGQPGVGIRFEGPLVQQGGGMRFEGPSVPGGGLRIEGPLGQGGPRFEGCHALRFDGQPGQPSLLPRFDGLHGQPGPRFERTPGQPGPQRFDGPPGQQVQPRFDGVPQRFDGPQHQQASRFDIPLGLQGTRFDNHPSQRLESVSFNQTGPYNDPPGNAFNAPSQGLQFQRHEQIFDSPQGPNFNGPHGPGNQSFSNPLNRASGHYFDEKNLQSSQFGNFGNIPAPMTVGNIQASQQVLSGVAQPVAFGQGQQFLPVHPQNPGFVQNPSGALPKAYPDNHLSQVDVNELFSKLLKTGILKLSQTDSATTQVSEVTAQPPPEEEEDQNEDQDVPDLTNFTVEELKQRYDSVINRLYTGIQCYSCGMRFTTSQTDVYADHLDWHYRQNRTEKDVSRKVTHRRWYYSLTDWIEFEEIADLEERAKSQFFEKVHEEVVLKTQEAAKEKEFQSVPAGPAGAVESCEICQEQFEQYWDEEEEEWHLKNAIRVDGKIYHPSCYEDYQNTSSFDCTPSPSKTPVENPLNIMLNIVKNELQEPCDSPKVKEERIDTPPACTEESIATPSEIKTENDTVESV
# ± gives the standard deviation of the averaged measurements. The entries are a selection whose mix differs from that of the whole data set.
# Compound: Nc1ncnc2c1ncn2[C@@H]1O[C@H](COP(=O)(O)OP(=O)(O)NP(=O)(O)O)[C@@H](O)[C@H]1O [adenylyl imidodiphosphate]
# Test: NP40-soluble protein abundance relative to vehicle (solubility fold change) (ratio); higher = more soluble protein in presence of AMP-PNP
# In short: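 Each value is a fold change relative to the detergent-processed vehicle, calculated per replicate from vsn-normalised intensities. Jurkat crude lysate received eight concentrations (0.1 to 10 mM) for 10 min at room temperature and 3 min at 37 °C, then was solubilised in 0.8% NP40 with benzonase (60 min, 4 °C). The ultracentrifuged supernatant was TMT-labelled and run by LC-MS/MS in three independent experiments.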
Target,NP40-soluble protein abundance (concentration: 1mM),NP40-soluble protein abundance (concentration: 2mM),NP40-soluble protein abundance (concentration: 4mM),NP40-soluble protein abundance (concentration: 6mM),NP40-soluble protein abundance (concentration: 8mM),NP40-soluble protein abundance (concentration: 10mM)
UniProt O75071,1.004 ± 0.0012,1.07 ± 0.079,1 ± 0.014,0.997 ± 0.022,0.994 ± 0.017,0.976 ± 0.035
WDR1 (UniProt O75083),0.974 ± 0.031,0.917 ± 0.059,0.946 ± 0.02,0.983 ± 0.044,0.994 ± 0.018,0.965 ± 0.017
ARL6IP5 (UniProt O75915),0.971 ± 0.061,0.926 ± 0.059,0.957 ± 0.048,0.991 ± 0.061,0.972 ± 0.019,0.98 ± 0.052
HIP1R (UniProt O75146),1.06 ± 0.019,1.11 ± 0.037,1.11 ± 0.022,1.11 ± 0.038,1.11 ± 0.044,1.18 ± 0.033
UniProt O60488 and related entries,1.06 ± 0.04,0.989 ± 0.12,1.05 ± 0.078,1.02 ± 0.041,1.03 ± 0.033,1.02 ± 0.067
SNX2 (UniProt O60749),0.993 ± 0.033,0.998 ± 0.038,0.983 ± 0.018,0.99 ± 0.0069,0.966 ± 0.028,0.974 ± 0.015
UniProt O60828 and related entries,1.05 ± 0.015,1.16 ± 0.035,1.09 ± 0.014,1.15 ± 0.02,1.122 ± 0.0021,1.22 ± 0.076
DKC1 (UniProt O60832),1.049 ± 0.0097,1.1 ± 0.057,1.13 ± 0.028,1.21 ± 0.051,1.29 ± 0.046,1.36 ± 0.083
UniProt O60343 and related entries,1.03 ± 0.038,0.982 ± 0.031,0.994 ± 0.015,0.989 ± 0.018,0.979 ± 0.011,0.977 ± 0.02
RBBP9 (UniProt O75884),1.01 ± 0.024,1.01 ± 0.035,0.98 ± 0.035,0.967 ± 0.028,0.98 ± 0.043,0.97 ± 0.029
SRP72 (UniProt O76094),0.999 ± 0.057,1.04 ± 0.1,1.05 ± 0.08,1.16 ± 0.074,1.16 ± 0.057,1.25 ± 0.13
UniProt O94927,0.978 ± 0.031,0.9803 ± 0.00099,0.979 ± 0.013,1.03 ± 0.032,1.02 ± 0.018,1.01 ± 0.024
RANBP6 (UniProt O60518),0.989 ± 0.06,0.974 ± 0.016,0.993 ± 0.029,0.978 ± 0.023,0.974 ± 0.044,0.963 ± 0.029
UniProt O95104 and related entries,1.1 ± 0.033,1.22 ± 0.083,1.26 ± 0.039,1.34 ± 0.14,1.39 ± 0.071,1.46 ± 0.063
STAMBP (UniProt O95630),1.02 ± 0.02,0.993 ± 0.012,0.995 ± 0.03,0.984 ± 0.018,0.964 ± 0.033,0.948 ± 0.06
ACSL3 (UniProt O95573),1.01 ± 0.05,0.976 ± 0.079,1.01 ± 0.075,0.987 ± 0.036,1 ± 0.068,0.968 ± 0.057
SLU7 (UniProt O95391),1.04 ± 0.022,1.04 ± 0.042,1.04 ± 0.026,1.04 ± 0.024,1.03 ± 0.045,1.1 ± 0.032
RNASEH2A (UniProt O75792),0.987 ± 0.032,0.947 ± 0.08,0.934 ± 0.053,0.94 ± 0.024,0.933 ± 0.038,0.913 ± 0.048
UniProt O75964,0.961 ± 0.051,0.95 ± 0.089,0.972 ± 0.07,1.1 ± 0.088,1.1 ± 0.032,1.1 ± 0.079
N4BP1 (UniProt O75113),1.01 ± 0.014,1.02 ± 0.039,1.02 ± 0.032,0.979 ± 0.027,0.96 ± 0.012,0.954 ± 0.028

# An excerpt taken from the entries so far, as a working copy:
Target,NP40-soluble protein abundance (concentration: 1mM),NP40-soluble protein abundance (concentration: 2mM),NP40-soluble protein abundance (concentration: 4mM),NP40-soluble protein abundance (concentration: 6mM),NP40-soluble protein abundance (concentration: 8mM),NP40-soluble protein abundance (concentration: 10mM)
SLU7 (UniProt O95391),1.04 ± 0.022,1.04 ± 0.042,1.04 ± 0.026,1.04 ± 0.024,1.03 ± 0.045,1.1 ± 0.032
RNASEH2A (UniProt O75792),0.987 ± 0.032,0.947 ± 0.08,0.934 ± 0.053,0.94 ± 0.024,0.933 ± 0.038,0.913 ± 0.048
UniProt O75964,0.961 ± 0.051,0.95 ± 0.089,0.972 ± 0.07,1.1 ± 0.088,1.1 ± 0.032,1.1 ± 0.079

# Remaining list, next part:

Target,NP40-soluble protein abundance (concentration: 1mM),NP40-soluble protein abundance (concentration: 2mM),NP40-soluble protein abundance (concentration: 4mM),NP40-soluble protein abundance (concentration: 6mM),NP40-soluble protein abundance (concentration: 8mM),NP40-soluble protein abundance (concentration: 10mM)
UniProt O94855 and related entries,0.963 ± 0.057,0.912 ± 0.12,0.955 ± 0.066,0.934 ± 0.043,0.943 ± 0.03,0.924 ± 0.078
UniProt O94768,1.07 ± 0.033,1.02 ± 0.091,1.04 ± 0.033,1.07 ± 0.034,1.08 ± 0.035,1.04 ± 0.049
UniProt O95644 and related entries,0.996 ± 0.018,1.02 ± 0.047,1 ± 0.03,0.984 ± 0.036,0.968 ± 0.016,1 ± 0.031
UniProt O60645 and related entries,1.03 ± 0.036,0.997 ± 0.041,1.025 ± 0.0081,1.01 ± 0.015,0.985 ± 0.017,0.998 ± 0.018
UniProt O95394 and related entries,1.02 ± 0.026,0.961 ± 0.049,1.01 ± 0.019,0.973 ± 0.019,0.984 ± 0.014,0.973 ± 0.011
RPP14 (UniProt O95059),0.961 ± 0.029,0.956 ± 0.011,0.9406 ± 0.0069,1.043 ± 0.0034,1.05 ± 0.027,1.04 ± 0.047
NDUFS6 (UniProt O75380),0.971 ± 0.037,1.03 ± 0.02,0.913 ± 0.017,0.954 ± 0.06,0.899 ± 0.052,0.946 ± 0.061
LYPLA2 (UniProt O95372),0.984 ± 0.044,0.918 ± 0.055,0.945 ± 0.028,0.972 ± 0.052,0.988 ± 0.075,0.932 ± 0.064
CCNT1 (UniProt O60563),1.1 ± 0.051,1.19 ± 0.074,1.21 ± 0.064,1.25 ± 0.12,1.31 ± 0.11,1.4 ± 0.14
UniProt O94903,1.03 ± 0.03,1.09 ± 0.059,1.03 ± 0.063,0.998 ± 0.021,0.98 ± 0.024,1.05 ± 0.078
UniProt O95551,0.999 ± 0.02,0.982 ± 0.014,0.9808 ± 0.0076,1.01 ± 0.031,0.997 ± 0.05,1.01 ± 0.046
UniProt O60499 and related entries,1.06 ± 0.038,1.06 ± 0.05,1.03 ± 0.065,1.02 ± 0.013,1.04 ± 0.026,0.972 ± 0.022
VAPB (UniProt O95292),1.05 ± 0.028,1.08 ± 0.07,1.03 ± 0.06,1.033 ± 0.0086,1 ± 0.041,1.03 ± 0.064
ZNF217 (UniProt O75362),1.02 ± 0.043,1.09 ± 0.031,1.06 ± 0.013,1.02 ± 0.064,1.01 ± 0.058,1.04 ± 0.021
UniProt O43924 and related entries,1.01 ± 0.033,0.928 ± 0.1,1 ± 0.051,1 ± 0.02,1.02 ± 0.046,0.98 ± 0.042
UniProt O60504-2|O60504,1.03 ± 0.013,0.999 ± 0.018,1.04 ± 0.018,1.03 ± 0.029,1.02 ± 0.029,1.02 ± 0.025
UniProt O60888 and related entries,1.028 ± 0.0045,1.11 ± 0.057,1.07 ± 0.043,1.02 ± 0.051,0.999 ± 0.054,1.02 ± 0.094
UniProt O75306 and related entries,0.952 ± 0.024,0.91 ± 0.12,0.945 ± 0.028,0.946 ± 0.037,0.939 ± 0.032,0.914 ± 0.065
PALM (UniProt O75781),1.02 ± 0.028,1.09 ± 0.12,1 ± 0.018,0.999 ± 0.042,0.979 ± 0.02,0.982 ± 0.004
NDUFS5 (UniProt O43920),1.02 ± 0.068,1.06 ± 0.15,1.01 ± 0.079,1.09 ± 0.068,1.08 ± 0.069,1.06 ± 0.039

Target,NP40-soluble protein abundance (concentration: 1mM),NP40-soluble protein abundance (concentration: 2mM),NP40-soluble protein abundance (concentration: 4mM),NP40-soluble protein abundance (concentration: 6mM),NP40-soluble protein abundance (concentration: 8mM),NP40-soluble protein abundance (concentration: 10mM)
UniProt O60825 and related entries,1.03 ± 0.024,0.978 ± 0.023,1.04 ± 0.032,1.02 ± 0.043,1.069 ± 0.0027,1.02 ± 0.016
UniProt O95218-2,1.02 ± 0.046,1.09 ± 0.076,1 ± 0.076,0.983 ± 0.012,0.948 ± 0.048,0.992 ± 0.038
UniProt O75569 and related entries,1.01 ± 0.0093,0.99 ± 0.021,1.05 ± 0.027,1.06 ± 0.018,1.12 ± 0.024,1.14 ± 0.026
XYLB (UniProt O75191),1.02 ± 0.027,0.984 ± 0.036,1.02 ± 0.029,0.995 ± 0.039,0.97 ± 0.032,0.99 ± 0.025
COQ9 (UniProt O75208),0.957 ± 0.023,0.98 ± 0.027,0.939 ± 0.045,0.985 ± 0.046,0.977 ± 0.11,0.937 ± 0.11
UniProt O95155 and related entries,0.992 ± 0.021,0.9829 ± 0.005,0.998 ± 0.019,0.985 ± 0.016,0.968 ± 0.02,0.986 ± 0.032
SMNDC1 (UniProt O75940),1.07 ± 0.012,1.17 ± 0.1,1.15 ± 0.024,1.21 ± 0.036,1.24 ± 0.034,1.31 ± 0.08
UniProt O75170-3|O75170-4|O75170-5|O75170 and related entries,0.9985 ± 0.0062,0.99 ± 0.014,1.017 ± 0.01,0.979 ± 0.013,0.953 ± 0.044,0.971 ± 0.028
UniProt O94966-6|O94966-7,0.976 ± 0.019,0.945 ± 0.051,0.978 ± 0.013,0.963 ± 0.017,0.969 ± 0.031,0.946 ± 0.025
KIF4A (UniProt O95239),1.026 ± 0.0028,1.06 ± 0.035,1.03 ± 0.01,1.02 ± 0.018,1.011 ± 0.0083,1.04 ± 0.033
FARS2 (UniProt O95363),0.9733 ± 0.0048,0.856 ± 0.13,0.943 ± 0.01,0.9111 ± 0.0032,0.919 ± 0.033,0.876 ± 0.029
PCF11 (UniProt O94913),1.036 ± 0.008,1.09 ± 0.061,1.08 ± 0.011,1.07 ± 0.044,1.05 ± 0.011,1.1 ± 0.019
BRD4 (UniProt O60885),1.03 ± 0.033,1.14 ± 0.059,1.09 ± 0.015,1.1 ± 0.055,1.07 ± 0.038,1.123 ± 0.0069
UniProt O75494 and related entries,1.04 ± 0.04,1.04 ± 0.013,1.04 ± 0.033,1.03 ± 0.071,1.05 ± 0.059,1.07 ± 0.095
UniProt O75592 and related entries,0.993 ± 0.014,0.997 ± 0.037,1 ± 0.028,0.994 ± 0.033,0.996 ± 0.019,1.02 ± 0.017
UniProt O75935 and related entries,0.932 ± 0.1,0.942 ± 0.076,0.898 ± 0.091,0.929 ± 0.095,0.976 ± 0.11,0.909 ± 0.11
CDC123 (UniProt O75794),1.01 ± 0.075,1.02 ± 0.064,1.03 ± 0.046,1.06 ± 0.046,1.07 ± 0.037,1.03 ± 0.056
SNX3 (UniProt O60493),1.04 ± 0.055,1.12 ± 0.026,1.02 ± 0.096,0.993 ± 0.02,0.961 ± 0.028,0.993 ± 0.11
O60344 and related entries (UniProt P0DPD6),0.9761 ± 0.0039,0.9971 ± 0.0055,0.9621 ± 0.0038,0.992 ± 0.023,1.022 ± 0.0092,0.9766 ± 0.0043
UniProt O95163,0.9554 ± 0.0019,0.895 ± 0.12,0.956 ± 0.023,0.931 ± 0.031,0.949 ± 0.044,0.886 ± 0.054
